For at least one entry, the source does not settle the construct or the ends of the probe. At least one verdict was read from the data and is not stated in words by the source.

The chains behind the UniProt entries cited, without tags or fusion partners.
UniProt Q06609, whole entry: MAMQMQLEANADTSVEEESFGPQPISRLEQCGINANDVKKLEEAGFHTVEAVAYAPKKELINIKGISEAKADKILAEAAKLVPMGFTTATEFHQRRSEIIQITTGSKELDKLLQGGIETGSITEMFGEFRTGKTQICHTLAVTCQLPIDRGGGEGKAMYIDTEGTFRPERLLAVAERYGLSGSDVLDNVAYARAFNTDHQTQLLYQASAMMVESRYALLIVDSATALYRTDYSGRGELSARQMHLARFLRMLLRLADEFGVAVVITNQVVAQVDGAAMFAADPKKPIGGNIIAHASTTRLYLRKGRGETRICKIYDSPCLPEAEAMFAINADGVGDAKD

For this data set, the target named is RAD51 WT (human) (UniProt Q06609). Nature of the data set: EMSA. The settings on record: 2 mM AMP-PNP, 10 mM Mg2+; 20 mM Hepes-NaOH pH 7.5, 0.1 mg/ml BSA, 1 mM DTT, 10 mM MgCl2, 150 mM KCl, 2 mM ATP or AMP-PNP or no nucleotide, 2.7 uM (nt) DNA, 37 C 10 min; 8% native PAGE in 1x TBE; recombinant protein; protein details: N-terminal His-tag removed with thrombin; label: 5'-Cy5 on strand 1. (In general: Mobility shift assays separate free from complexed probe on a gel.)

Turning to “TAATACAAAATAAGTAAATGAATAAACAGAGAAAATAAAG (double strand) [Cy5-OL4/OL5 40-mer]”, the binding result was “binds”.
